The test addresses X-ray repair cross-complementing protein 1 (XRCC1) (human) (UniProt P18887). The test can be described thus: dynamic light scattering; XRCC1 alone, 2.9 µM, in DLS buffer (25 mM HEPES-NaOH pH 7.5, 200 mM NaCl, 300 mM urea, 1 mM DTT); 25 °C; no PAR; both purified.

Amino acid sequences for entries named in this document (tags omitted).
UniProt P18887: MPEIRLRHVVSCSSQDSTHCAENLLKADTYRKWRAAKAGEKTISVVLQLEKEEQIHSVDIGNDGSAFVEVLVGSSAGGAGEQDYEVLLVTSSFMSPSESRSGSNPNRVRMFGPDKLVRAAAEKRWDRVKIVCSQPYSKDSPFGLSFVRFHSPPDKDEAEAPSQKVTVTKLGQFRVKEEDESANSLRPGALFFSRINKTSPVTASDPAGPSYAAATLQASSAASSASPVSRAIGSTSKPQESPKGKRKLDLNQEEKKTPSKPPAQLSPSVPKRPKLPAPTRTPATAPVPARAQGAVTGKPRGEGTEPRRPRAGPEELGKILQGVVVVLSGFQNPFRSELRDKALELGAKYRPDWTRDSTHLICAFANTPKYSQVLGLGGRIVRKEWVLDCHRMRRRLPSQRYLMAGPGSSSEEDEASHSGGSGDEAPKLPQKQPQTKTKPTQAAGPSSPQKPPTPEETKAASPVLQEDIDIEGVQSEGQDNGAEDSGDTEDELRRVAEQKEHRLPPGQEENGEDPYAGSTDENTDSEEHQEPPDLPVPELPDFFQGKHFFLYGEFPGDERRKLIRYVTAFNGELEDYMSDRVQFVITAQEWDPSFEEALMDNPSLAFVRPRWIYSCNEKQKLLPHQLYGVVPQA

Results are given in words; binding and its absence hold for the method and conditions named. Some entries that bind do so weakly or less than the wild type.

In the case of “X-ray repair cross-complementing protein 1 (XRCC1) (from UniProt P18887 1-633) (other; other documents disagree on this pair)”, the binding result is recorded as “binds”.

The values above are taken from PMC9654039, “FUS Microphase Separation: Regulation by Nucleic Acid Polymers and DNA Repair Proteins”.
